No constants are given. Whether binding was seen depends on the method and setting. Binding seen in cells or lysates may run through a third protein. Some binding calls cover weakened binding; strength is not graded here.
Target: anti-silencing function 1B (ASF1B) (human (endogenous in MHCC97H and Hep3B)) (UniProt Q9NVP2)
Assay: co-IP; lysates of untreated MHCC97H and Hep3B cells, pre-cleared with protein A/G agarose; immunoprecipitated with anti-ASF1B antibody (CST) or normal rabbit IgG overnight at 4°C; protein A/G agarose beads 1 hour at 4°C; Western blot; Absin IP/Co-IP kit

Chains of the proteins cited; added tags and fusions are not shown.
UniProt Q9NVP2: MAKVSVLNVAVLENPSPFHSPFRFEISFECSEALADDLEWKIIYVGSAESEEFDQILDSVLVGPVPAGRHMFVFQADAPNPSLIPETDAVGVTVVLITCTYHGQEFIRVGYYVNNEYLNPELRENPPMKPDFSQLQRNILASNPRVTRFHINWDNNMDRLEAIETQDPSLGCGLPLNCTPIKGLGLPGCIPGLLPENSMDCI
UniProt P50750: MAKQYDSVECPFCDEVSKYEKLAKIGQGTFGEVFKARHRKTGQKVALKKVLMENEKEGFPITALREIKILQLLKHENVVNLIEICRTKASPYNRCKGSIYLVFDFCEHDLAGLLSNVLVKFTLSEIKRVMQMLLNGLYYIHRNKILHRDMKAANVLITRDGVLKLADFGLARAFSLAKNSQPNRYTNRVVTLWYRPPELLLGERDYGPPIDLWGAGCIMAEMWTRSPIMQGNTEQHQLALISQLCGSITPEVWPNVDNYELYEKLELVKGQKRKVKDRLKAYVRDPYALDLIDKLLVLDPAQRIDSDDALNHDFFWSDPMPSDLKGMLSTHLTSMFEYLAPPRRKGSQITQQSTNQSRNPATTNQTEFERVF

CDK9 (from UniProt P50750 1-372)
binding: binds

— paper PMC8787347
